Source: PMC4299599, “Quantification of cytosolic interactions identifies Ede1 oligomers as key organizers of endocytosis” (Molecular Systems Biology, 2014)
No constants are given. Whether binding was seen depends on the method and setting. Some binding calls cover weakened binding; strength is not graded here.

Legend:
[1] = target: T1, Pan1 (S. cerevisiae, UniProt P32521 1-1480); experiment: fluorescence cross-correlation spectroscopy (FCCS); living yeast cells, observation volume in the cytoplasm; one protein tagged with (3)myeGFP/eGFP and the other with 3mCherry in the same strain; apparent (effective) KD; interactions up to ~1 μM detectable
T1 construct: Pan1, S. cerevisiae; also called Pan1-1myeGFP; Pan1-3mCherry; source: chromosomally tagged at the endogenous locus, in the cytoplasm of living S. cerevisiae cells
T1 sequence (looked up): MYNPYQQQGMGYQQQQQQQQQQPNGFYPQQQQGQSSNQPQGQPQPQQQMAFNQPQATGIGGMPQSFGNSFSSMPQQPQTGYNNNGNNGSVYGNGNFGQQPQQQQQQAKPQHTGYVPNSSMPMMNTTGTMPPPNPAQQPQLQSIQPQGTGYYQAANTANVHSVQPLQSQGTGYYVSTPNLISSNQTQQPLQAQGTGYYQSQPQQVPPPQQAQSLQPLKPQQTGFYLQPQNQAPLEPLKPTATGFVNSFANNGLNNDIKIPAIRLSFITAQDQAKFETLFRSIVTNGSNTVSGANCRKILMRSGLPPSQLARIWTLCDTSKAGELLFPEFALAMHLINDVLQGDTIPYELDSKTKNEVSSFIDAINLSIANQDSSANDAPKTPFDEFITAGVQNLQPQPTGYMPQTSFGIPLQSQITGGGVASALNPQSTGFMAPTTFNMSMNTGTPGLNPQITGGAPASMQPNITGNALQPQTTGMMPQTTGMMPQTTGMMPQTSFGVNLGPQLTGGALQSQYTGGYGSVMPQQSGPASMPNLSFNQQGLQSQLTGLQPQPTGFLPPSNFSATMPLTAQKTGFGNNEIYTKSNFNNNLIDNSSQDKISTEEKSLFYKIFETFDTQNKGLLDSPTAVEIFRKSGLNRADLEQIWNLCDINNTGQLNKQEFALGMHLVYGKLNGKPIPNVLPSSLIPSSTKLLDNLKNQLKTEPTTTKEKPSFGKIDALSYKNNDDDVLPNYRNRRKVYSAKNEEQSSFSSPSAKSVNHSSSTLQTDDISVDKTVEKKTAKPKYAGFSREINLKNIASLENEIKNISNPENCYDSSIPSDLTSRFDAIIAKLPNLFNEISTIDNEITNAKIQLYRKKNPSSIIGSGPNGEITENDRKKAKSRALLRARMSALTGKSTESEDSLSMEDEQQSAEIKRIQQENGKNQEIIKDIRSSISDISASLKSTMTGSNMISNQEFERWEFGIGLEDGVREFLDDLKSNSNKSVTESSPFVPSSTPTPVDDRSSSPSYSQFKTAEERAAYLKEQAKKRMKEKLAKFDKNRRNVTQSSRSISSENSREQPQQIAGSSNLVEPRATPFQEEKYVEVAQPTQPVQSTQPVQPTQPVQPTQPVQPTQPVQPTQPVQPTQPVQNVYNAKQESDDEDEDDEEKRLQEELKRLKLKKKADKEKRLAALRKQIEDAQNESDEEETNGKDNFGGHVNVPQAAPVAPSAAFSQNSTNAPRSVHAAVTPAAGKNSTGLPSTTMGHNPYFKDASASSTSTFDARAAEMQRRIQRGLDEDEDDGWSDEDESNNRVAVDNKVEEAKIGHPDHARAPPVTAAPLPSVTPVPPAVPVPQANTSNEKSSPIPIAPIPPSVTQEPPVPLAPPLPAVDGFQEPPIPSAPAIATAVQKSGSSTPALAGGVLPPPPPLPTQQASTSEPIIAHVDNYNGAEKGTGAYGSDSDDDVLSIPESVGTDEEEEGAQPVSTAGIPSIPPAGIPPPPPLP

[2] = target: T2, End3 (S. cerevisiae) (UniProt P39013); experiment: as above
T2 sequence: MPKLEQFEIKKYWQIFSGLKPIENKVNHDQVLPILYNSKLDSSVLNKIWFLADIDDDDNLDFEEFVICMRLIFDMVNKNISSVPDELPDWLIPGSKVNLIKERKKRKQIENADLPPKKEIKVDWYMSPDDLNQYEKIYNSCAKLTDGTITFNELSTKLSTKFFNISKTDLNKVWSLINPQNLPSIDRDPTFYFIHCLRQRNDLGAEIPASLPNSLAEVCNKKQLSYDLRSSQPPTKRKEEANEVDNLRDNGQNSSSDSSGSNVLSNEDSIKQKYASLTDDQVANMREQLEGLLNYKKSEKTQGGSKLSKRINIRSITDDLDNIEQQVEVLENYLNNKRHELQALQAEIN

[3] = target: T3, Sla2 (S. cerevisiae, UniProt P33338 1-968); experiment: fluorescence cross-correlation spectroscopy (FCCS); self-interaction: living diploid yeast cells with one allele fused to (3)myeGFP and one to (3)mCherry, cytoplasm; apparent (effective) KD, to be taken as the upper limit since complexes of one colour are not seen
T3 construct: Sla2, S. cerevisiae; also called Sla2-3myeGFP; Sla2-3mCherry; source: chromosomally tagged at the endogenous locus, in the cytoplasm of living S. cerevisiae cells
T3 sequence (looked up): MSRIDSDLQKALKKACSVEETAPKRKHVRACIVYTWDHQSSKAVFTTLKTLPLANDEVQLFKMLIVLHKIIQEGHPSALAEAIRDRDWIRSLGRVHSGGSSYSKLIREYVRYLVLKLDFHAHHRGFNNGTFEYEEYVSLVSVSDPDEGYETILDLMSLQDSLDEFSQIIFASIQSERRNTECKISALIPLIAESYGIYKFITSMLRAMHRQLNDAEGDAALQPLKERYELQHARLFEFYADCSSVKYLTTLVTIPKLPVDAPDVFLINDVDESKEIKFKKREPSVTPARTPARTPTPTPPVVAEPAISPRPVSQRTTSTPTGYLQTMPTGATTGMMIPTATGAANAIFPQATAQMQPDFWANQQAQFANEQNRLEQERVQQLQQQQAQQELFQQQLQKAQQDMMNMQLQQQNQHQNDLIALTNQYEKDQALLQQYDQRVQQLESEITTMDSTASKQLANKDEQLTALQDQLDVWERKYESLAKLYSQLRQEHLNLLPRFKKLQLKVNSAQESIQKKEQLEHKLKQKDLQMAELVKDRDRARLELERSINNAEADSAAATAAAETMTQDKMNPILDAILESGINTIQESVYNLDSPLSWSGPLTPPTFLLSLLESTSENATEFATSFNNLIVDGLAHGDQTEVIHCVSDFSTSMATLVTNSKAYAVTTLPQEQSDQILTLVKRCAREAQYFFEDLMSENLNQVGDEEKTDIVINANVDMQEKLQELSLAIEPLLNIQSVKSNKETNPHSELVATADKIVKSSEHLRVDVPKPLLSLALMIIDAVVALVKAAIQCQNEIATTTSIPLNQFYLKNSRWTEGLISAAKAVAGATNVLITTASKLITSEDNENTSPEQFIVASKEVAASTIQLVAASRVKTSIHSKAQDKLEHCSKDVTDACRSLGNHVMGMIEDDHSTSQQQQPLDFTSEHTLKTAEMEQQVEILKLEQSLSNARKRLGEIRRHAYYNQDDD

Measured: binding

B1: Sla2 (protein, UniProt P33338 1-968)
chain: MSRIDSDLQKALKKACSVEETAPKRKHVRACIVYTWDHQSSKAVFTTLKTLPLANDEVQLFKMLIVLHKIIQEGHPSALAEAIRDRDWIRSLGRVHSGGSSYSKLIREYVRYLVLKLDFHAHHRGFNNGTFEYEEYVSLVSVSDPDEGYETILDLMSLQDSLDEFSQIIFASIQSERRNTECKISALIPLIAESYGIYKFITSMLRAMHRQLNDAEGDAALQPLKERYELQHARLFEFYADCSSVKYLTTLVTIPKLPVDAPDVFLINDVDESKEIKFKKREPSVTPARTPARTPTPTPPVVAEPAISPRPVSQRTTSTPTGYLQTMPTGATTGMMIPTATGAANAIFPQATAQMQPDFWANQQAQFANEQNRLEQERVQQLQQQQAQQELFQQQLQKAQQDMMNMQLQQQNQHQNDLIALTNQYEKDQALLQQYDQRVQQLESEITTMDSTASKQLANKDEQLTALQDQLDVWERKYESLAKLYSQLRQEHLNLLPRFKKLQLKVNSAQESIQKKEQLEHKLKQKDLQMAELVKDRDRARLELERSINNAEADSAAATAAAETMTQDKMNPILDAILESGINTIQESVYNLDSPLSWSGPLTPPTFLLSLLESTSENATEFATSFNNLIVDGLAHGDQTEVIHCVSDFSTSMATLVTNSKAYAVTTLPQEQSDQILTLVKRCAREAQYFFEDLMSENLNQVGDEEKTDIVINANVDMQEKLQELSLAIEPLLNIQSVKSNKETNPHSELVATADKIVKSSEHLRVDVPKPLLSLALMIIDAVVALVKAAIQCQNEIATTTSIPLNQFYLKNSRWTEGLISAAKAVAGATNVLITTASKLITSEDNENTSPEQFIVASKEVAASTIQLVAASRVKTSIHSKAQDKLEHCSKDVTDACRSLGNHVMGMIEDDHSTSQQQQPLDFTSEHTLKTAEMEQQVEILKLEQSLSNARKRLGEIRRHAYYNQDDD
binds: all assays above
